## Screening data

From PubChem BioAssay record AID1053133 (Broad Institute, 2014).

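Plate-reader measure of the Venus reporter marking one vaccinia stage in infected cells (the cell line is not named here); read time unknown.
The test concentration is not given here.
Percent change in Venus reporter signal; lower (more negative) values mean stronger inhibition of that viral stage.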

Values are in %.
The controls that fix the scale are not given here.
Common to all entries: measured here: Venus reporter, other viral stage.
This is a side read-out of the assay, for part of the compounds, not drawn at random.

compound	activity change (Venus) (%)
Cc1ccc(S(=O)(=O)Nc2ccc3c(c2)C(=O)N([C@@H](C)CO)C[C@H](C)[C@@H](CN(C)C(=O)C2CCCCC2)OCCCC[C@@H](C)O3)cc1	-43.78
O=C(C[C@@H]1CC[C@@H]2[C@H](COC[C@H](O)CN2S(=O)(=O)c2cccc(Cl)c2)O1)Nc1ccccc1	-20.5
COc1ccc(C#Cc2ccc([C@H]3[C@H]4CN(C(=O)c5ccc(F)cc5)CC(=O)N4[C@H]3CO)cc2)cc1	-61.12
[N-]=[N+]=NCc1ccccc1C[C@@]1(C(=O)NCC(O)CO)N=C(c2ccc(OCCCO)cc2)O[C@@H]1c1ccccc1 (stereo partly shown)	-38.89
COc1ccccc1-c1ccc(C2[C@@H]3CN(S(=O)(=O)c4ccc(F)cc4)C[C@H]2N3)cc1 (stereo partly shown)	-26.5
C[C@H](CO)N1C[C@H](C)[C@@H](CN(C)S(=O)(=O)c2cccs2)Oc2c(NC(=O)Nc3ccc(C(F)(F)F)cc3)cccc2C1=O	-42.1
C[C@@H]1CN([C@H](C)CO)C(=O)Cc2cc(NC(=O)Nc3ccc4c(c3)OCO4)ccc2O[C@@H]1CN(C)Cc1ccc(Cl)c(Cl)c1	-31.49
C[C@H](CO)N1C[C@H](C)[C@H](CN(C)S(=O)(=O)c2ccc(C#N)cc2)Oc2ncc(/C=C/c3ccccc3)cc2C1=O	-27.41
C[C@H](CO)N1C[C@H](C)[C@H](CN(C)CC2CCCCC2)OCCCC[C@H](C)Oc2ccc(NC(=O)Nc3ccccc3)cc2C1=O	-64.12
CC(C)CC#Cc1ccc2c(c1)O[C@@H](CN(C)C(=O)Nc1ccccc1F)[C@@H](C)CN([C@H](C)CO)S2(=O)=O	-62.06
C[C@@H]1CN([C@@H](C)CO)C(=O)Cc2cc(NC(=O)Cc3cn(C)c4ccccc34)ccc2O[C@H]1CN(C)Cc1ccccc1	-25.74
CN1c2ccc(-c3ccc(C#N)cc3)cc2[C@@H]2[C@@H](CCN2C(=O)NC2CCCCC2)[C@H]1CO	-16.23
COc1ccccc1CNC(=O)C[C@@H]1C[C@H]2c3cc(NS(=O)(=O)c4ccc(F)cc4)ccc3O[C@H]2[C@H](CO)O1	-39.35
C[C@@H]1CCCCO[C@H](CN(C)Cc2ccncc2)[C@H](C)CN([C@H](C)CO)C(=O)c2cc(NS(=O)(=O)c3ccc(Cl)cc3)ccc2O1	-24.97
Cc1cc(C(=O)Nc2cccc3c2O[C@@H](CN(C)Cc2ccc(-c4ccccc4)cc2)[C@H](C)CN([C@@H](C)CO)C3=O)n(C)n1	-34.38
O=C(c1ccc2c(c1)OCO2)N1CC(=O)N2[C@H](C1)[C@H](c1ccc(C#CCC3CCCC3)cc1)[C@@H]2CO	-66.05
C[C@H]1CN([C@@H](C)CO)S(=O)(=O)c2ccc(C3=CCCCC3)cc2O[C@@H]1CN(C)C(=O)Cc1ccccc1	-67.72
CCCC#Cc1ccc2c(c1)O[C@H](CN(C)C(=O)c1ccccc1F)[C@H](C)CN([C@H](C)CO)S2(=O)=O	-50.66
C[C@@H]1CN([C@H](C)CO)C(=O)Cc2cc(NC(=O)Cc3ccccc3)ccc2O[C@H]1CN(C)Cc1ccc(Oc2ccccc2)cc1	-23.25
N#Cc1cccc(-c2ccc([C@@H]3[C@H]4CN(C(=O)Nc5cccc(F)c5)CCCCN4[C@H]3CO)cc2)c1	-38.56
C[C@@H]1CCCCO[C@@H](CN(C)Cc2ccc3c(c2)OCO3)[C@@H](C)CN([C@@H](C)CO)C(=O)c2cc(NS(=O)(=O)c3ccccc3)ccc2O1	-34.33
CC(C)NC(=O)Nc1cccc2c1O[C@@H](CN(C)CC1CCCCC1)[C@H](C)CN([C@@H](C)CO)C2=O	-30.82
COc1ccccc1NC(=O)N1CC(=O)N2[C@H](CO)[C@@H](c3ccc(-c4ccc(C)cc4)cc3)[C@@H]2C1	-31.64
C[C@H]1CCCCO[C@@H](CN(C)Cc2ccccc2)[C@@H](C)CN([C@@H](C)CO)C(=O)c2cc(NC(=O)Nc3ccc4c(c3)OCO4)ccc2O1	-57.47
C[C@@H]1CN([C@@H](C)CO)C(=O)c2c(c3ccccc3n2C)-c2ccccc2CO[C@H]1CN(C)Cc1ccc(-c2ccccc2)cc1	-47.8
C[C@@H]1CN([C@H](C)CO)C(=O)c2cccc(NC(=O)CCCCCC(=O)Nc3ccccc3N)c2O[C@@H]1CN(C)Cc1ccc(Cl)c(Cl)c1	-81.48
COc1ccc([Si](C)(C)[C@H]2[C@H](CCn3cc(CCO)nn3)O[C@@]3(C(=O)N(C)c4ccccc43)[C@@H]2C)cc1	-46.36
C[C@H](CO)N1C[C@H](C)[C@H](CN(C)C(=O)Nc2ccc3c(c2)OCO3)Oc2ncc(/C=C/c3ccccc3)cc2C1=O	-53.08
COc1ccc(S(=O)(=O)N(C)C[C@H]2OCCCC[C@@H](C)Oc3ccc(NS(=O)(=O)c4cccs4)cc3C(=O)N([C@@H](C)CO)C[C@H]2C)cc1	-14.18
C/C=C/c1ccc([C@@H]2[C@@H](CO)N(C(C)=O)C23CN(C(=O)c2ccccc2)C3)cc1	-26.35
Cc1ccc(S(=O)(=O)Nc2ccc3c(c2)CC(=O)N([C@@H](C)CO)C[C@H](C)[C@H](CN(C)Cc2ccc4c(c2)OCO4)O3)cc1	-33.16
CC(C)CC#Cc1ccc2c(c1)O[C@H](CN(C)Cc1ccncc1)[C@@H](C)CN([C@H](C)CO)S2(=O)=O	-46.4
C[C@H]1CCCCO[C@H](CN(C)Cc2ccc(Cl)c(Cl)c2)[C@@H](C)CN([C@@H](C)CO)C(=O)c2cc(NS(C)(=O)=O)ccc2O1	-62.55
CN1c2ccc(-c3cccc(C#N)c3)cc2[C@@H]2[C@@H](CCN2C(=O)Nc2cc(F)ccc2F)[C@@H]1CO	-38.02
C[C@H]1CN([C@@H](C)CO)C(=O)c2c(c3ccccc3n2C)-c2ccccc2CO[C@@H]1CN(C)C(=O)Nc1cccc(C(F)(F)F)c1	-54.22

Once more, the final 3:

compound	activity change (Venus) (%)
C[C@H]1CCCCO[C@H](CN(C)Cc2ccc(Cl)c(Cl)c2)[C@@H](C)CN([C@@H](C)CO)C(=O)c2cc(NS(C)(=O)=O)ccc2O1	-62.55
CN1c2ccc(-c3cccc(C#N)c3)cc2[C@@H]2[C@@H](CCN2C(=O)Nc2cc(F)ccc2F)[C@@H]1CO	-38.02
C[C@H]1CN([C@@H](C)CO)C(=O)c2c(c3ccccc3n2C)-c2ccccc2CO[C@@H]1CN(C)C(=O)Nc1cccc(C(F)(F)F)c1	-54.22